Results: paper PMC10954555
No constants are given. Whether binding was seen depends on the method and setting. Binding seen in cells or lysates may run through a third protein. Some binding calls cover weakened binding; strength is not graded here. One block for each molecule: values may come before it.

The chains behind the UniProt entries cited, without tags or fusion partners.
UniProt Q9H9F9: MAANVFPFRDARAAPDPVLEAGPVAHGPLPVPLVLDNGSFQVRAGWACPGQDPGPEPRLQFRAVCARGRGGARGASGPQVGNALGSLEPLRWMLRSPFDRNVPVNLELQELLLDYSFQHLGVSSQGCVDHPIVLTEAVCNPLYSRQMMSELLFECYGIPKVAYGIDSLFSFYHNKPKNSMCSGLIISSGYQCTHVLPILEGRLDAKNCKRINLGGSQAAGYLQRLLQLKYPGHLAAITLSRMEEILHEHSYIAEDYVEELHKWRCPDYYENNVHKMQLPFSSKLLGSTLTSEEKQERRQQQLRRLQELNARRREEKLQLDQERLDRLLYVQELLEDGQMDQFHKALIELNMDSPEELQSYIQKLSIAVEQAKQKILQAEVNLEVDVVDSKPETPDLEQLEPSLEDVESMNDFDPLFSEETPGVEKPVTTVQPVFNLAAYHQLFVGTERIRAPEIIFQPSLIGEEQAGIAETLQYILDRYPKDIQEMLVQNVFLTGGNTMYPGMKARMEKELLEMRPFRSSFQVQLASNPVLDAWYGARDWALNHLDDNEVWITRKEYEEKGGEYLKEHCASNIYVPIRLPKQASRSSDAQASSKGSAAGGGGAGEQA
UniProt Q9C086: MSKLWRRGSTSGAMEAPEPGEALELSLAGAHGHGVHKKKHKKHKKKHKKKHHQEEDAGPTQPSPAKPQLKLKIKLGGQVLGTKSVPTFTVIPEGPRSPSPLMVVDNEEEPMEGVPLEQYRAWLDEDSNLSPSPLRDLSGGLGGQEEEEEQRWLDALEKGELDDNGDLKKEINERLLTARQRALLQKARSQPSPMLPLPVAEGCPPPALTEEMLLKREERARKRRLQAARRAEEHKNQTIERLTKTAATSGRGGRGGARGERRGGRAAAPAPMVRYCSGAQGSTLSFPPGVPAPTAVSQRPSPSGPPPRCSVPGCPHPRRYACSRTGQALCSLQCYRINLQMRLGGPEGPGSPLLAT

Experiments:
[1] = target: C-terminal LAP-tagged INO80 subunit ACTR5 (UniProt Q9H9F9); experiment: co-IP; native ChIP: GFP-Trap agarose on MNase-digested chromatin of HeLa Kyoto cells expressing ACTR5-LAP (WT HeLa as control); release with 3C protease; immunoblotting
[2] = target: INO80B-V5 (endogenously V5-tagged INO80B) (human (endogenous in MCF-7)) (UniProt Q9C086); experiment: co-IP; anti-V5 immunoprecipitation from nuclear extracts of MCF-7 INO80B-V5 knock-in clones (V5-negative clones as control); 160 mM NaCl, overnight at 4 °C; protein A/G Dynabeads; immunoblotting

binding [1]: binds
Molecule: INO80B (INO80 complex subunit), endogenous (from UniProt Q9C086 1-356)

binding [2]: binds
B1: transforming growth factor beta regulator 1 (TBRG1) (protein, UniProt Q3YBR2 1-411)
chain: MSLLDGLASSPRAPLQSSKARMKKLPKKSQNEKYRLKYLRLRKAAKATVFENAAICDEIARLEEKFLKAKEERRYLLKKLLQLQALTEGEVQAAAPSHSSSLPLTYGVASSVGTIQGAGPISGPSTGAEEPFGKKTKKEKKEKGKENNKLEVLKKTCKKKKMAGGARKLVQPIALDPSGRPVFPIGLGGLTVYSLGEIITDRPGFHDESAIYPVGYCSTRIYASMKCPDQKCLYTCQIKDGGVQPQFEIVPEDDPQNAIVSSSADACHAELLRTISTTMGKLMPNLLPAGADFFGFSHPAIHNLIQSCPGARKCINYQWVKFDVCKPGDGQLPEGLPENDAAMSFEAFQRQIFDEDQNDPLLPGSLDLPELQPAAFVSSYQPMYLTHEPLVDTHLQHLKSPSQGSPIQSSD
